PubChem BioAssay AID504808 – Drosophila RNAi Screening Center – 2011
In all, the deposit lists about 21,000 reagents; below is a random part of those that have a named target and a result. Over the whole deposit, 18 (0.084%) were called active. 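Raw counts without plate normalisation, one of two replicates; the ratio scores behind the calls were not deposited.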 Reagent sequences are not shown. Not given: the amount of reagent, the time to read-out.

Purpose: 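Fly genes required to hold E2F transcription in check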 (primary screen)
System: Drosophila S2 cells
Knock-down reagent: long dsRNA against Drosophila genes
Measurement: 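Firefly luciferase driven by E2F sites, normalised to Renilla luciferase on the same minimal promoter, measured by plate reader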
Scale: E2F firefly: higher = more E2F reporter activity; Renilla normaliser: higher = more normaliser reporter signal
Rule for the call: 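Called active if the normalised E2F reporter went up by over 50%; the cutoff is arbitrary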

With knock-down of CG12426 [SID104194308], the screen gave E2F firefly, rep 1 = 1.32e5; Renilla normaliser, rep 1 = 6808; inactive.
CG15459 [SID104200322] gave E2F firefly, rep 1 = 1.38e5; Renilla normaliser, rep 1 = 6260; inactive.
For CG13457 [SID104189796] the deposit lists E2F firefly, rep 1 = 1.47e5; Renilla normaliser, rep 1 = 7806; inactive.
For Dhc36C [SID104183107] the deposit lists E2F firefly, rep 1 = 93231; Renilla normaliser, rep 1 = 4371; inactive.
Eps-15 [SID104184080] scored E2F firefly, rep 1 = 85528; Renilla normaliser, rep 1 = 3678; inactive.
Knock-down of bif [SID104198693] gave: E2F firefly, rep 1 = 85969; Renilla normaliser, rep 1 = 3398; inactive.
Against bif [SID104200105], the values are E2F firefly, rep 1 = 8314; Renilla normaliser, rep 1 = 728; inactive.
Silencing of fidipidine [SID104187410] gave: E2F firefly, rep 1 = 1.33e5; Renilla normaliser, rep 1 = 5207; inactive.
With knock-down of CG18577 [SID104195144], the screen gave E2F firefly, rep 1 = 1.47e5; Renilla normaliser, rep 1 = 6804; inactive.
Against CG15649 [SID104184032], the values are E2F firefly, rep 1 = 1.01e5; Renilla normaliser, rep 1 = 4710; inactive.
Depletion of Dd [SID104200331] resulted in: E2F firefly, rep 1 = 1.96e5; Renilla normaliser, rep 1 = 5656; inactive.
With knock-down of slf [SID104180375] the results were E2F firefly, rep 1 = 1.44e5; Renilla normaliser, rep 1 = 5273; inactive.
CG32119 [SID104189040] scored E2F firefly, rep 1 = 1.48e5; Renilla normaliser, rep 1 = 4161; inactive.
After knock-down of CG13631 [SID104194424], the record shows E2F firefly, rep 1 = 67751; Renilla normaliser, rep 1 = 2893; inactive.
For CG6813 [SID104195914], the values are E2F firefly, rep 1 = 1.56e5; Renilla normaliser, rep 1 = 6621; inactive.
With knock-down of CG31826 [SID104183149], the record shows E2F firefly, rep 1 = 1.10e5; Renilla normaliser, rep 1 = 5014; inactive.
After knock-down of mdy [SID104181351] the results were E2F firefly, rep 1 = 1.29e5; Renilla normaliser, rep 1 = 5162; inactive.
Depletion of mdy [SID104182042] resulted in: E2F firefly, rep 1 = 94126; Renilla normaliser, rep 1 = 4036; inactive.
With knock-down of dmGlut [SID104182627], the screen gave E2F firefly, rep 1 = 80695; Renilla normaliser, rep 1 = 3845; inactive.

Reformatted: 3 of the entries above
target gene,PubChem SID,"E2F firefly, rep 1","Renilla normaliser, rep 1",Call
CG15459,SID104200322,1.38e5,6260,inactive
CG13457,SID104189796,1.47e5,7806,inactive
Dhc36C,SID104183107,93231,4371,inactive
